Measured values: paper PMC7819943, “Rice protein-binding microarrays: a tool to detect cis-acting elements near promoter regions in rice”
The list shows a part of the results.

Protein sequences, listed by entry. Tags and fused reporters are not part of them.
UniProt Q0JBA9, entry or part of it: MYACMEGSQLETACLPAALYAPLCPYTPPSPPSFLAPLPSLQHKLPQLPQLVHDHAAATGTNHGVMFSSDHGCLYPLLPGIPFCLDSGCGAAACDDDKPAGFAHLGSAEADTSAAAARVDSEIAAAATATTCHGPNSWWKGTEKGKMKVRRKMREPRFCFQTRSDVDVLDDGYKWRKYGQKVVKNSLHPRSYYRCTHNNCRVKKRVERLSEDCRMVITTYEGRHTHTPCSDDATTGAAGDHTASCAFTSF

Target: OsWRKY34 (Oryza sativa, UniProt Q0JBA9 1-250)
Test: protein-binding microarray (RPBM); PBS, 2% BSA, 51.3 ng/ul salmon testes DNA, 50 uM zinc acetate, 200 nM TF, 25 C, 1 h; high values mean tight binding
Settings: protein: recombinant; tags: N-terminal polyhistidine and DsRed monomer fusion (pET32a); label: CyDye5-dUTP incorporated in the synthesized complementary strand; 3' TTTTT single-stranded linker to array surface; dsDNA, one strand shown
Procedure, shortened: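 An Axon 4000B scanner gave the binding signal as per-feature fluorescence intensity in arbitrary units. This followed washing of a custom Agilent array that had been incubated for 1 h at 25 °C with 200 nM protein in PBS, 2% BSA, salmon testes DNA and 50 µM zinc acetate. The proteins were transcription factors fused at the N-terminus to polyhistidine and DsRed, expressed in E. coli BL21-CodonPlus and purified on Ni–NTA.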

Sequence | binding signal
CCCCACATTTTCTTTCACCTTCTCTTCCATTCCACCTCTCCGGAGTCACCTAGTGCAG | 10100 fluorescence intensity (a.u.)
AGTAACTTAAGCTTTATCTTCTTATCTTGGCCCATCTCTTCGGAGTCACCTAGTGCAG | 9740 fluorescence intensity (a.u.)
AACACCATCTCGTGCGCTCGTGGCCCTTGGATTCAACTACCGGAGTCACCTAGTGCAG | 11000 fluorescence intensity (a.u.)
ATTATGTCATACATGCTGTCCAATTTTGTTCTATTTTGTTCGGAGTCACCTAGTGCAG | 13100 fluorescence intensity (a.u.)
ATACTTTTTTCTGAACGAATCGACGCTTAGGTGCGCCCATCGGAGTCACCTAGTGCAG | 8660 fluorescence intensity (a.u.)
TCCCACCTTTTTTCCGTTTCCTGCTTGCTTGCTTTCCTGACGGAGTCACCTAGTGCAG | 12300 fluorescence intensity (a.u.)
TGTCTCGGCCCCACCCAACCCCACCCCTCGCCCGTAGACCCGGAGTCACCTAGTGCAG | 8200 fluorescence intensity (a.u.)
CTTTTATTGTTTTTTTCCCTTGATATAGATCATGTGTGACCGGAGTCACCTAGTGCAG | 8330 fluorescence intensity (a.u.)
CCACCGATCCACCAACACCACGAGCAAATTTCTCTTCCAACGGAGTCACCTAGTGCAG | 11700 fluorescence intensity (a.u.)
GTCGCGATCATTTTTCACACGTCGGACGCTAGTCCACATCCGGAGTCACCTAGTGCAG | 8380 fluorescence intensity (a.u.)
GGTTTGTTTTTTTTTGACGGAGGGAGTAGTTAAATTTGGCCGGAGTCACCTAGTGCAG | 9120 fluorescence intensity (a.u.)
TTTCGATTTGGTTTGGTCGCATTTGGTTTGATTTGATTCTCGGAGTCACCTAGTGCAG | 11100 fluorescence intensity (a.u.)
TCCTATTAGAATTCTACGTTTTTTCTATTTCTCTATTTTTCGGAGTCACCTAGTGCAG | 14500 fluorescence intensity (a.u.)
AGTCGATTTAAGTTGGTTGGATTGGTGGTAGCGCGAAATCCGGAGTCACCTAGTGCAG | 8450 fluorescence intensity (a.u.)
CGTGTTCATGACTCCAACACTCACTACCGGCCACTAGCTACGGAGTCACCTAGTGCAG | 9760 fluorescence intensity (a.u.)
GGGTGTGTTTTCTCCTTAAAATACCTACATACACATATTTCGGAGTCACCTAGTGCAG | 8280 fluorescence intensity (a.u.)
CGCGCGCCTCTCTCGGCCACACACCTCGCGCGTCCCCTTACGGAGTCACCTAGTGCAG | 10200 fluorescence intensity (a.u.)
ATGACTCTGAAAATTTTGAGTGTTGTTTCCTTGATTTTTTCGGAGTCACCTAGTGCAG | 9040 fluorescence intensity (a.u.)
GTTGGCTTGCTCTCTCTGTCCCGGGGCCACTGATCTTGGCCGGAGTCACCTAGTGCAG | 8450 fluorescence intensity (a.u.)
CATTGGGCGGGCAGTCTATGACCTATGAAAGCTATCAAATCGGAGTCACCTAGTGCAG | 12400 fluorescence intensity (a.u.)
AAGCGTCATCCTTATCGATCTTTCCATGATTTTTCAAAGACGGAGTCACCTAGTGCAG | 8380 fluorescence intensity (a.u.)
GTGGCTGCGTGTGGTGGCGTTGCACGGCTCGGGTGGGCTCCGGAGTCACCTAGTGCAG | 8660 fluorescence intensity (a.u.)
CACCTGCGCCTCGCATCCTACCTCGCCTGCCGCTTCAATCCGGAGTCACCTAGTGCAG | 9200 fluorescence intensity (a.u.)

A different layout for part of the listing above.
Sequence	binding signal
CGCGCGCCTCTCTCGGCCACACACCTCGCGCGTCCCCTTACGGAGTCACCTAGTGCAG	10200 fluorescence intensity (a.u.)
ATGACTCTGAAAATTTTGAGTGTTGTTTCCTTGATTTTTTCGGAGTCACCTAGTGCAG	9040 fluorescence intensity (a.u.)
